Assay: general procedure: Fmoc solid-phase peptide synthesis; 2-chlorotrityl chloride resin (Iris Biotech), 0.85 mmol/g; TBTU/DIEA
Conditions: late stage modification step, trifluoroacetate

[3-tert-Butyl-D-alanyl]-[3-tert-butyl-L-alanyl]-[(3R)-3-amino-L-phenylalanyl]-[(3R)-3-hydroxy-L-leucyl]-L-leucyl-D-arginyl-[3-trimethylsilyl-L-alanlyl]-L-allothreonyl-glycyl-L-seryl-L-serine C^1.11-N^3.3-lactam
step yield (from compound 439A): 26% of theory

[3-tert-Butyl-D-alanyl]-[3-tert-butyl-L-alanyl]-[(3R)-3-amino-L-phenylalanyl]-[(3R)-3-hydroxy-L-leucyl]-L-leucyl-D-lysyl-L-isoleucyl-L-allothreonyl-glycyl-L-seryl-L-serine C^1.11-N^3.3-lactam
step yield (from compound 454A): 62% of theory

[3-tert-Butyl-D-alanyl]-[3-tert-butyl-L-alanyl]-[(3R)-3-amino-L-phenylalanyl]-[(3R)-3-hydroxy-L-leucyl]-L-leucyl-D-omityl-L-isoleucyl-L-allothreonyl-glycyl-L-asparaginyl-L-serine C^1.11-N^3.3-lactam bistrifluoroacetate
step yield: 91.9% of theory

[3-tert-Butyl-D-alanyl]-[3-tert-butyl-L-alanyl]-[(3R)-3-amino-L-phenylalanyl]-[(3R)-3-hydroxy-L-leucyl]-L-leucyl-D-ornithyl-L-isoleucyl-L-allothreonyl-glycyl-L-seryl-L-serine C^1.11-N^3.3-lactam
step yield (from compound 451A): 25% of theory

[3-tert-Butyl-D-alanyl]-[3-tert-butyl-L-alanyl]-[(3R)-3-amino-L-phenylalanyl]-[(3R)-3-hydroxy-L-leucyl]-L-leucyl-[(2R)-2,4-diaminobutyryl]-L-isoleucyl-L-allothreonyl-glycyl-L-seryl-L-serine C^1.11—N^3.3-lactam
step yield (from compound 453A): 40% of theory

[3-tert-Butyl-D-alanyl]-[3-tert-butyl-L-alanyl]-[(3R)-3-amino-L-phenylalanyl]-[(3R)-3-hydroxy-L-leucyl]-L-norvalyl-D-arginyl-L-isoleucyl-L-allothreonyl-glycyl-L-seryl-L-serine C^1.11-N^3.3-lactam
step yield (from compound 446A): 27% of theory

[3-tert-Butyl-D-alanyl]-[3-tert-butyl-L-alanyl]-[(3R)-3-amino-L-phenylalanyl]-[(3R)-3-hydroxy-L-leucyl]-L-valyl-D-arginyl-L-isoleucyl-L-allothreonyl-glycyl-L-seryl-L-serine C^1.11-N^3.3-lactam
step yield (from compound 447A): 36% of theory

[3-tert-Butyl-D-alanyl]-[3-tert-butyl-L-alanyl]-[(3R)-3-amino-L-phenylalanyl]-[(3R)-3-hydroxy-L-leucyl]-[3-tert-butyl-L-alanyl]-D-arginyl-L-isoleucyl-L-allothreonyl-glycyl-L-seryl-L-serine C^1.11-N^3.3-lactam
step yield (from compound 434A): 25% of theory

[3-tert-Butyl-D-alanyl]-[3-tert-butyl-L-alanyl]-[(3R)-3-amino-L-phenylalanyl]-[(3R)-3-hydroxy-L-leucyl]-[3-trimethylsilyl-L-alanyl]-D-arginyl-L-isoleucyl-L-allothreonyl-glycyl-L-seryl-L-serine C^1.11-N^3.3-lactam
step yield (from compound 435A): 42% of theory

[3-tert-Butyl-D-alanyl]-[3-tert-butyl-L-alanyl]-[(3R)-3-amino-O-methyl-L-tyrosyl]-[(3R)-3-hydroxy-L-leucyl]-L-leucyl-D-arginyl-L-isoleucyl-L-allothreonyl-glycyl-[(3S)-3-hydroxy-L-asparaginyl]-L-serine C^1.11-N^3.3-lactam bistrifluoroacetate
step yield: 75% of theory

[3-tert-Butyl-D-alanyl]-[(3R)-3-amino-L-phenylalanyl]-[(3R)-3-hydroxy-L-leucyl]-L-leucyl-D-arginyl-L-isoleucyl-L-allothreonyl-glycyl-L-allothreonyl-L-serine C^1.11-N^3.3-lactam bistrifluoroacetate
step yield: 57% of theory

[(3-R)-3-Hydroxy-L-leucyl]-L-leucyl-D-arginyl-L-isoleucyl-L-allothreonyl-glycyl-L-threonyl-L-serine bistrifluoroacetate
step yield: 94% of theory

[(3R)3-Hydroxy-L-leucyl]-L-leucyl-D-arginyl-L-isoleucyl-L-allothreonyl-glycyl-L-phenyl alanyl-L-serine bistrifluoroacetate
step yield: 99% of theory

[(3R)-3-Amino-3-(pyridin-3-yl)-L-alanyl]-[(3R)-3-hydroxy-L-leucyl]-L-leucyl-D-arginyl-L-isoleucyl-L-allothreonyl-glycyl-[(3R)-3-hydroxy-L-asparaginyl]-L-C^1.9-N^3.1-lactam tristrifluoroacetate
step yield: 96% of theory

[(3R)-3-Amino-4-(dimethylaminophenyl)-L-alanyl]-[(3R)-3-hydroxy-L-leucyl]-L-leucyl-D-arginyl-L-isoleucyl-L-allothreonyl-glycyl-[(3S)-3-hydroxy-L-asparaginyl]-L-serine C^1.9-N^3.1-lactam trishydrochloride
step yield: 98% of theory

[(3R)-3-Amino-L-leucyl]-[(3R)-3-hydroxy-L-leucyl]-L-leucyl-D-arginyl-L-isoleucyl-L-allothreonyl-glycyl-[(3R)-3-hydroxy-L-asparaginyl]-L-serine C^1.9-N^3.1-lactam bishydrochloride
step yield (of theory from 394A): 96% of theory

[(3R)-3-Amino-L-phenylalanyl]-L-threonyl-L-leucyl-D-arginyl-L-isoleucyl-L-allothreonyl-glycyl-L-seryl C^1.9-N^3.1-lactam bishydrochloride
step yield (of theory from 384A): 86% of theory

[(3R)-3-Amino-L-phenylalanyl]-[(3R)-3-hydroxy-L-leucyl]-(3-trimethylsilyl-L-alanyl)-D-arginyl-L-isoleucyl-L-allothreonyl-glycyl-L-seryl-L-serine C^1.9-N^3.1-lactam bishydrochloride
step yield (of theory from 386A): 90% of theory

[(3R)-3-Amino-L-phenylalanyl]-[(3R)-3-hydroxy-L-leucyl]-L-isoleucyl-D-arginyl-L-isoleucyl-L-allothreonyl-glycyl-L-seryl-L-serine C^1.9-N^3.1-lactam bishydrochloride
step yield (of theory from 399A): 93% of theory | purity (crude or final not stated): 93% pure

[(3R)-3-Amino-L-phenylalanyl]-[(3R)-3-hydroxy-L-leucyl]-L-leucyl-D-L-arginyl-isoleucyl-L-seryl-glycyl-L-seryl-L-serine C^1.9-N^3.1-lactam bishydrochloride
step yield (of theory from 387A): 98% of theory

[(3R)-3-Amino-L-phenylalanyl]-[(3R)-3-hydroxy-L-leucyl]-L-leucyl-D-arginyl-L-iso-leucyl-L-allothreonyl-glycyl-L-phenylalanyl-L-serine C^1.9-N^3.1-lactam bishydrochloride
step yield: 99% of theory

[(3R)-3-Amino-L-phenylalanyl]-[(3R)-3-hydroxy-L-leucyl]-L-leucyl-D-arginyl-L-isoleucyl-L-allothreonyl-D-seryl-L-seryl-L-serine C^1.9-N^3.1-lactam bistrifluoroacetate
step yield (of theory from 397A): 93% of theory

[(3R)-3-Amino-L-phenylalanyl]-[(3R)-3-hydroxy-L-leucyl]-L-leucyl-D-arginyl-L-isoleucyl-L-allothreonyl-glycyl-L-alanyl-L-serine C^1.9-N^3.1-lactam bishydrochloride
step yield: 99% of theory
